Survivor count and T/C data for 21 molecules are collected here from PubChem BioAssay AID328 (DTP/NCI, 2004).

The assay deals with BDF1 mice, P388 leukemia ip, median survival T/C. In words: NCI In Vivo Anticancer Drug Screen. Data for tumor model P388 Leukemia (intraperitoneal) in B6D2F1 (BDF1) mice. The following applies: T/C endpoint: median survival time, higher T/C = longer survival. The essentials: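 T/C = treated-group survival ÷ vehicle-control survival; tumour transplanted into mice before dosing.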

Where [1] appears, read: dose: 100.0 mg/kg/injection, schedule: Q04DX003 (ip), vehicle: water.
The mark [2] stands for this setting: dose: 25.0 mg/kg/injection, schedule: Q01DX009 (ip), vehicle: saline with Tween-80.
The mark [3] stands for this setting: dose: 200.0 mg/kg/injection, schedule: Q01DX009 (ip), vehicle: saline with Tween-80.
The mark [4] stands for this setting: dose: 50.0 mg/kg/injection, schedule: Q01DX009 (ip), vehicle: saline with Tween-80.

Each structure is given as a SMILES string. The list does not hold the whole screen: it gathers tests that were run many times, whatever their T/C, doses with no T/C, and many T/C values between a quarter and a half above the control. Other doses and runs of a compound stand elsewhere. T/C gives the treated animals as a percentage of the vehicle group. Some doses have a count of surviving animals in place of a T/C: the source files T/C as zero there, which appears to mark a toxic dose or a test without result, not a measured value. Some survivor counts are full or nearly so, which does not show that the dose was tolerated: survival well below the control is almost never listed, so the zero probably covers shortened survival too. Survivors were counted at the toxicity check, usually on the fifth day, unless a day is given; later deaths do not show. Schedules are NCI's codes, taken here to give the interval after Q, in days (D) or hours (H), and the number of doses after X. Some entries were tested several times; the results are listed from low to high. Where survival is the endpoint, the PubChem record calls one and a half times the control and up active, and a quarter to a half above the control has no call in these data; cut-offs in other NCI protocols can differ. Some T/C values are followed by the survivors on the day toxicity was checked, most often the fifth; where none is given, no animal had died by that day. Starred links: 1 amine or outer side, 2 acyl side, 3 side chain; linkers in the order of their positions; H or OH if unused. Positions of bridges follow the written chain, without caps; N, C: chain ends. Non-standard residues stand in square brackets, D forms with d. Residues, ends and D or L forms follow the SMILES beside them. ξ: configuration not given here. *: point of attachment. ξOrn(4,5-diOH) = O=C(C(CC(O)C(O)N[*:3])N[*:1])[*:2]; ξhTyr(βξ-OH,γξ-OH) = NC(C(=O)O)C(O)C(O)c1ccc(O)cc1; ξPro(3ξ-OH,4ξ-Me) = CC1CNC(C(=O)O)C1O; X4 = CCCCC/C=C/C/C=C\CCCCCCCC(=O)*; Hyp = O=C(O)[CH]1C[CH](O)CN1

For `CC(C)(C)c1cc2c3c(c1)C(C)(C)OS3(C)(=O)OC2(C)C`, the survivor count (dose: 100.0 mg/kg/injection, schedule: Q04DX002 (ip), vehicle: saline with Tween-80) was 0 of 6 and the survivor count (dose: 200.0 mg/kg/injection, schedule: Q04DX002 (ip), vehicle: saline with Tween-80) is reported as 0 of 6. In the case of `C[n+]1ccc(Nc2ccc(NC(=O)c3ccc([N+](=O)[O-])cc3)cc2)cc1`, the T/C is, setting by setting: (dose: 50.0 mg/kg/injection, schedule: Q04DX003 (ip), vehicle: water, evaluated on day 22) 100 % of control; (dose: 50.0 mg/kg/injection, schedule: Q04DX003 (ip), vehicle: water, evaluated on day 30) 107, 113, 114 % of control; under setting [1], 109, 112, 113 % of control; (dose: 200.0 mg/kg/injection, schedule: Q04DX003 (ip), vehicle: water, evaluated on day 22) 91 % of control [4 of 6 alive]; (dose: 200.0 mg/kg/injection, schedule: Q04DX003 (ip), vehicle: water, evaluated on day 30) 98 % of control [5 of 6 alive]. Also, the survivor count under setting [1] is 3 of 6; the survivor count (dose: 200.0 mg/kg/injection, schedule: Q01DX009 (ip), vehicle: water) is reported as 0 of 6; the survivor count (dose: 200.0 mg/kg/injection, schedule: Q04DX003 (ip), vehicle: water) was 3 of 6 and 5 of 6. `CNC(=S)N1N=C(C)CC1=O`: the survivor count (dose: 150.0 mg/kg/injection, schedule: Q01DX009 (ip), vehicle: saline with Tween-80) is given as 2 of 6. Regarding `CN=S(=O)(OCCCCOS(=O)(=NC)c1ccccc1)c1ccccc1` (stereo not given), the T/C under setting [2] is 131 % of control; the T/C (dose: 50.0 mg/kg/injection, schedule: Q01DX009 (ip), vehicle: saline with Tween-80, evaluated on day 30) was 146 % of control; the T/C (dose: 50.0 mg/kg/injection, schedule: Q01DX009 (ip), vehicle: saline with Tween-80, evaluated on day 35) is 138 % of control. Besides, the survivor count by setting is: (dose: 100.0 mg/kg/injection, schedule: Q01DX009 (ip), vehicle: saline with Tween-80) 5 of 6 and 6 of 6; under setting [3], 2 of 6. `[Co].[N-]=C=S.[N-]=C=S.[N-]=C=S.[NH2-].[NH2-].[NH2-]`: the survivor count (dose: 600.0 mg/kg/injection, schedule: Q01DX001 (ip), vehicle: suspension in saline) is on record as 1 of 6.

`N#CCCN(C(=S)Nc1ccc(Cl)c(Cl)c1)C1CCCCC1`: the T/C (dose: 400.0 mg/kg/injection, schedule: Q01DX009 (ip), vehicle: saline with Tween-80) is 144 % of control. For `CCCCC/C=C/C/C=C\CCCCCCCC(=O)NC1CC(O)C(O)NC(=O)C2C(O)C(C)CN2C(=O)C(C(C)O)NC(=O)C(C(O)C(O)c2ccc(O)cc2)NC(=O)C2CC(O)CN2C(=O)C(C(C)O)NC1=O` (stereo not drawn) (X4-[ξOrn(4,5-diOH)]T[Hyp][ξhTyr(βξ-OH,γξ-OH)]T[ξPro(3ξ-OH,4ξ-Me)]; lactam 1-C; configuration not given here), the survivor count (dose: 8.0 mg/kg/injection, schedule: Q01DX009 (ip), vehicle: lactate) is 3 of 6. For `CC[C@@]1(O)C(=O)OCc2c1cc1n(c2=O)Cc2cc3c(OC)cccc3nc2-1`, under “dose: 2.0 mg/kg/injection, schedule: Q01DX009 (ip), vehicle: carboxymethylcellulose (CMC)”, the T/C was 134 % of control. Where the note is “dose: 4.0 mg/kg/injection, schedule: Q01DX009 (ip), vehicle: carboxymethylcellulose (CMC)”, the survivor count was 6 of 6. For the molecule `O=C(c1ccc(C(=O)N2CC2)cc1)N1CC1`, for the setting “dose: 10.0 mg/kg/injection, schedule: Q01DX009 (ip), vehicle: saline with Tween-80”, the survivor count is on record as 6 of 6. As to `COC(=O)/C(N=Nc1cccc(C)c1)=C(\C)O`, the survivor count under setting [3] is 6 of 6. As for `C1CCC2C(C1)NC1CCCCC12` (stereo not given), the survivor count (dose: 100.0 mg/kg/injection, schedule: Q01DX009 (ip), vehicle: saline) is listed as 3 of 6. Turning to `NC(CSC(c1ccccc1)(c1ccccc1)c1ccc(CO)cc1)C(=O)O` (stereo not given), the T/C (dose: 35.0 mg/kg/injection, schedule: Q01DX009 (ip), vehicle: Klucel (hydroxypropylcellulose) (HPC)) was 145 % of control; the T/C (dose: 100.0 mg/kg/injection, schedule: Q04DX003 (ip), vehicle: saline) was 125 % of control; the T/C (dose: 200.0 mg/kg/injection, schedule: Q04DX003 (ip), vehicle: saline) was 125 % of control.

Regarding `CCCOn1nnc2cc(Cl)ccc21`, the survivor count under setting [4] is listed as 5 of 6. Consider `COc1ccc(NC(=S)NN)cc1`, for which the T/C (dose: 100.0 mg/kg/injection, schedule: Q04DX003 (ip), vehicle: saline with Tween-80) is 130 % of control.

Consider `O=C1CN(c2ccccc2)CC(=O)N2Cc3ccccc3CN12`, for which the survivor count (dose: 50.0 mg/kg/injection, schedule: Q01DX005 (ip), vehicle: saline with Tween-80) is 5 of 5 and the survivor count (dose: 200.0 mg/kg/injection, schedule: Q01DX005 (ip), vehicle: saline with Tween-80) is reported as 5 of 5. Turning to `CCCCCCCCCCCCCCCCN(C)CCO`, the survivor count (dose: 100.0 mg/kg/injection, schedule: Q01DX009 (ip), vehicle: saline + alcohol) is 6 of 6 and the survivor count (dose: 200.0 mg/kg/injection, schedule: Q01DX009 (ip), vehicle: saline + alcohol) is given as 0 of 6. Consider `Nc1nc(-c2cccc3ccccc23)cc2ccccc12`, for which the T/C under setting [4] is 135 % of control and the T/C under setting [3] is 126 % of control. On to `S=C1N=C2c3ccccc3C2C(=S)S1` (stereo not given), for which the survivor count under setting [2] is 6 of 6. Consider `Cn1cnc([N+](=O)[O-])c1S(=O)(=O)NCN1CCOCC1`, for which the T/C (dose: 25.0 mg/kg/injection, schedule: Q01DX009 (ip), vehicle: Klucel (hydroxypropylcellulose) (HPC)) is 129 % of control. For the molecule `O=S1(=O)N2CN3CN(C2)CN1C3`, under “dose: 25.0 mg/kg/injection, schedule: Q04DX003 (ip), vehicle: Klucel (hydroxypropylcellulose) (HPC)”, the T/C was 138 % of control. For the molecule `CC(=O)Nc1ccc(N2CCN=N2)cc1`, the survivor count (dose: 115.0 mg/kg/injection, schedule: Q01DX009 (ip), vehicle: Klucel (hydroxypropylcellulose) (HPC)) is 1 of 6 and the survivor count (dose: 170.0 mg/kg/injection, schedule: Q01DX009 (ip), vehicle: Klucel (hydroxypropylcellulose) (HPC)) was 6 of 6.
